PubChem BioAssay AID743454, Peter MacCallum Cancer Centre | 2014
Purpose: 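Knock-downs lowering viability or raising caspase 3/7 activity in vorinostat-treated resistant cells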 (primary screen). System: human HCT116-VR colon cancer cells, selected for vorinostat resistance. Reagents: siRNA pool against human genes, 40 nM siRNA pool. Time to read-out: vorinostat for 24 h, read-out about 72 h after transfection. Challenge: vorinostat at 2.5 µM final. Measurement: 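Cell viability by CellTiter-Fluor and caspase 3/7 activity by luminescence, each scaled to mock wells per plate, duplicates averaged, then robust z-scored over all plates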. Scale: viability robust z-score: higher = more viable cells than screen typical; caspase robust z-score: higher = more caspase 3/7 activity than screen typical. Active means: 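Hits are knock-downs in viability class RV1/RV2 or caspase class CA1/CA2, excluding ones that killed cells in the no-drug cell-count arm; hits then retested with single siRNAs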.
The whole screen tested about 18,000 reagents; this is a random part of them. 450 of all reagents (2.5%) were called active. 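Single biological run; no consistent viability z cut-off exists, so the class columns, not z-scores, define the calls.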

After knock-down of ALX1 (GeneID 8092) [SID135622302], the screen gave viability hit class no change; caspase hit class no change; viability robust z-score 0.95; caspase robust z-score -1.34; inactive.
Against DNHD1 (GeneID 144132) [SID135623035] the deposit lists viability hit class no change; caspase hit class no change; viability robust z-score 0.64; caspase robust z-score -0.44; inactive.
DNHD1 (GeneID 144132) [SID135623498] showed viability hit class no change; caspase hit class no change; viability robust z-score -0.99; caspase robust z-score 3.34; inactive.
TRAP1 (GeneID 10131) [SID152156745] gave viability hit class no change; caspase hit class no change; viability robust z-score 0.05; caspase robust z-score -0.87; inactive.
Silencing of POLR3E (GeneID 55718) [SID134324418] resulted in: viability hit class no change; caspase hit class no change; viability robust z-score -1.62; caspase robust z-score -0.54; inactive.
Knock-down of SUPT4H1 (GeneID 6827) [SID134316864] came out at: viability hit class no change; caspase hit class no change; viability robust z-score -1.02; caspase robust z-score -0.08; inactive.
SGMS1 (GeneID 259230) [SID134323262] showed viability hit class no change; caspase hit class no change; viability robust z-score 0.92; caspase robust z-score -0.16; inactive.
With knock-down of HSCB (GeneID 150274) [SID152151899], the screen gave viability hit class no change; caspase hit class no change; viability robust z-score -0.3; caspase robust z-score -1.31; inactive.
MAPK8IP1 (GeneID 9479) [SID56478708] gave viability hit class no change; caspase hit class no change; viability robust z-score 0.18; caspase robust z-score -0.04; inactive.
Knock-down of TAS2R5 (GeneID 54429) [SID152151015] came out at: viability hit class no change; caspase hit class no change; viability robust z-score 0.31; caspase robust z-score -0.58; inactive.
LGALS2 (GeneID 3957) [SID152150420] scored viability hit class no change; caspase hit class no change; viability robust z-score -0.16; caspase robust z-score -0.83; inactive.
Against RETREG1 (GeneID 54463) [SID135623241], the values are viability hit class no change; caspase hit class no change; viability robust z-score 1.4; caspase robust z-score 1.82; inactive.
Silencing of TAS2R38 (GeneID 5726) [SID135623528] came out at: viability hit class no change; caspase hit class no change; viability robust z-score -1.32; caspase robust z-score -0.07; inactive.
USP54 (GeneID 159195) [SID135623224] gave viability hit class no change; caspase hit class no change; viability robust z-score 0.2; caspase robust z-score 0.13; inactive.
For EPDR1 (GeneID 54749) [SID152152683], the entry reads viability hit class no change; caspase hit class no change; viability robust z-score -0.3; caspase robust z-score -0.78; inactive.
Against CCHCR1 (GeneID 54535) [SID135623994], the entry reads viability hit class no change; caspase hit class no change; viability robust z-score -0.09; caspase robust z-score 0.57; inactive.
Knock-down of ARHGAP30 (GeneID 257106) [SID135621719] resulted in: viability hit class no change; caspase hit class no change; viability robust z-score 0.46; caspase robust z-score -0.74; inactive.
With knock-down of MEX3C (GeneID 51320) [SID135621287] the results were viability hit class no change; caspase hit class no change; viability robust z-score -0.84; caspase robust z-score 4.2; inactive.
Against TAS2R45 (GeneID 259291) [SID134321715] the deposit lists viability hit class no change; caspase hit class no change; viability robust z-score -1.29; caspase robust z-score 1.44; inactive.
Against FUT4 (GeneID 2526) [SID152150578] the deposit lists viability hit class no change; caspase hit class no change; viability robust z-score 0.02; caspase robust z-score 1.24; inactive.
With knock-down of STK39 (GeneID 27347) [SID152151246] the results were viability hit class no change; caspase hit class no change; viability robust z-score -0.14; caspase robust z-score 0.9; inactive.
Depletion of CCDC198 (GeneID 55195) [SID134324199] gave: viability hit class no change; caspase hit class no change; viability robust z-score -0.03; caspase robust z-score 1.27; inactive.
IFT56 (GeneID 79989) [SID135622758] showed viability hit class no change; caspase hit class no change; viability robust z-score 0.81; caspase robust z-score 0.11; inactive.
With knock-down of PRELID3B (GeneID 51012) [SID152153828], the screen gave viability hit class no change; caspase hit class no change; viability robust z-score -0.23; caspase robust z-score 2.6; inactive.
Knock-down of OR6B1 (GeneID 135946) [SID152149666] gave: viability hit class no change; caspase hit class no change; viability robust z-score -0.13; caspase robust z-score 0.6; inactive.
For RAD50 (GeneID 10111) [SID134310820], the values are viability hit class no change; caspase hit class no change; viability robust z-score 0.54; caspase robust z-score 0.62; inactive.
Against NHLRC1 (GeneID 378884) [SID134326885], the values are viability hit class no change; caspase hit class no change; viability robust z-score 1.01; caspase robust z-score -0.38; inactive.
